# Some entries share one result that the patent states for a list of compounds.
# Tested on: differentiated C2C12 cells
# Test: Glucose uptake in differentiated C2C12 (skeletal muscle) cells
# Assay type: cell-based, mouse
# Conditions: 200 nM insulin alone or 600 ppb Compound #43 alone, 1.5 hr; not statistically significant
# Procedure: The mouse myoblast C2C12 cells were purchased from the American Type Culture Collection (ATCC, Manassas, Va.). These cells were amplified in DMEM media supplemented with 10% FBS. Equal number of C2C12 cells were then seeded on 96-well plates (5000 cells/well) and cultured in 10% FBS DMEM media at 37° C. for 5 days. Cells were replenished daily with fresh 10% FBS DMEM media. At day 5 of culture, C2C12 cells were differentiated using 0.5% horse serum (Sigma)-containing DMEM media (differentiation media) continuing for 7 days with daily replacement of fresh differentiation media, as previously described (Misu et al, Cell Metabolism 12, 483-495, 2010). At day 7 post-differentiation, differentiated C2C12 cells were rinsed with PBS twice and pretreated without or with 0.006% DMSO (Compound #43 solvent) or Compound #43 (300 or 600 ppb) in serum-free glucose-free DMEM media overnight. Then these cells were washed once with PBS, and then treated without (basal) or with insulin (200 nM), Compound #43 (300 and 600 ppb), or both insulin and Compound #43 in glucose/phenol red-free DMEM media at 37° C. for 1.5 hr. After treatment, media was removed and cells were washed once with PBS and incubated with 1 mM 2-deoxyglucose (2DG) at room temperature for 30 min. […] Luminescent signals were recorded using a Bio-Tek luminometer.
structure (smiles),measurement,value
"C[Se]C[C@H]1O[C@@H](n2cnc3c(N)ncnc32)C(OC(C)=O)C1OC(C)=O (stereo partly shown) [Compound #43, Adenosine, 5′-Se-methyl-5′-selino-, 2′,3′-diacetate]",increase of glucose uptake vs basal,16-19%

# Source: US11613552B2, “Pharmaceutical agents, compositions, and methods relating thereto” (Alltech, Inc., priority 2017, dated 2023)
